In patent US20040044006A1, “Methods of use of quinolone compounds against pneumococcal and haemophilus bacteria” (priority 1999, published 2004):
The name of at least one read-out is uncertain.

System: penicillin susceptible and resistant pneumococcal strains (2 quinolone resistant)
Assay: Time-kill testing of 12 pneumococcal strains
Type: cell-based, Streptococcus pneumoniae
Details: of 12 strains (macrolides 7)
Summary of the method: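 Pneumococci at 5×10^5–5×10^6 cfu/ml were exposed to doubling antibiotic concentrations in cation-adjusted Mueller-Hinton broth + 5% lysed horse blood at 35 °C with shaking. Viable counts (detection limit 300 cfu/ml) were taken at 0, 3, 6, 12 and 24 h.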

Cc1c(F)c(N2CCNC(C)C2)cc2c1c(=O)c(C(=O)O)cn2C1CC1 (stereo not drawn) [Grepafloxacin, grepafloxacin] was tested, and the “No. strains −1 Log10 cfu/ml lower than 0 h” value (3 h, 0.25 × MIC) was 0 No. strains, the “No. strains −2 Log10 cfu/ml lower than 0 h” value (3 h, 0.25 × MIC) was 0 No. strains and the “No. strains −3 Log10 cfu/ml lower than 0 h” value (3 h, 0.25 × MIC) was 0 No. strains. The “No. strains −1 Log10 cfu/ml lower than 0 h” value (3 h, 0.5 × MIC) was 0 No. strains, the “No. strains −2 Log10 cfu/ml lower than 0 h” value (3 h, 0.5 × MIC) was 0 No. strains and the “No. strains −3 Log10 cfu/ml lower than 0 h” value (3 h, 0.5 × MIC) was 0 No. strains. The “No. strains −1 Log10 cfu/ml lower than 0 h” value (3 h, 2 × MIC) was 3 No. strains, the “No. strains −2 Log10 cfu/ml lower than 0 h” value (3 h, 2 × MIC) was 0 No. strains and the “No. strains −3 Log10 cfu/ml lower than 0 h” value (3 h, 2 × MIC) was 0 No. strains. For the same molecule, the “No. strains −1 Log10 cfu/ml lower than 0 h” value (3 h, 4 × MIC) was 6 No. strains, the “No. strains −2 Log10 cfu/ml lower than 0 h” value (3 h, 4 × MIC) was 0 No. strains and the “No. strains −3 Log10 cfu/ml lower than 0 h” value (3 h, 4 × MIC) was 0 No. strains. For the same molecule, the “No. strains −1 Log10 cfu/ml lower than 0 h” value (3 h, 8 × MIC) was 8 No. strains, the “No. strains −2 Log10 cfu/ml lower than 0 h” value (3 h, 8 × MIC) was 2 No. strains and the “No. strains −3 Log10 cfu/ml lower than 0 h” value (3 h, 8 × MIC) was 1 No. strains. The “No. strains −1 Log10 cfu/ml lower than 0 h” value (3 h, MIC) was 1 No. strains, the “No. strains −2 Log10 cfu/ml lower than 0 h” value (3 h, MIC) was 0 No. strains and the “No. strains −3 Log10 cfu/ml lower than 0 h” value (3 h, MIC) was 0 No. strains. For the same molecule, the “No. strains −1 Log10 cfu/ml lower than 0 h” value (6 h, 0.25 × MIC) was 0 No. strains, the “No. strains −2 Log10 cfu/ml lower than 0 h” value (6 h, 0.25 × MIC) was 0 No. strains and the “No. strains −3 Log10 cfu/ml lower than 0 h” value (6 h, 0.25 × MIC) was 0 No. strains. For the same molecule, the “No. strains −1 Log10 cfu/ml lower than 0 h” value (6 h, 0.5 × MIC) was 0 No. strains, the “No. strains −2 Log10 cfu/ml lower than 0 h” value (6 h, 0.5 × MIC) was 0 No. strains and the “No. strains −3 Log10 cfu/ml lower than 0 h” value (6 h, 0.5 × MIC) was 0 No. strains. For the same molecule, the “No. strains −1 Log10 cfu/ml lower than 0 h” value (6 h, 2 × MIC) was 9 No. strains, the “No. strains −2 Log10 cfu/ml lower than 0 h” value (6 h, 2 × MIC) was 1 No. strains and the “No. strains −3 Log10 cfu/ml lower than 0 h” value (6 h, 2 × MIC) was 0 No. strains. The “No. strains −1 Log10 cfu/ml lower than 0 h” value (6 h, 4 × MIC) was 12 No. strains, the “No. strains −2 Log10 cfu/ml lower than 0 h” value (6 h, 4 × MIC) was 4 No. strains and the “No. strains −3 Log10 cfu/ml lower than 0 h” value (6 h, 4 × MIC) was 0 No. strains. For the same molecule, the “No. strains −1 Log10 cfu/ml lower than 0 h” value (6 h, 8 × MIC) was 12 No. strains, the “No. strains −2 Log10 cfu/ml lower than 0 h” value (6 h, 8 × MIC) was 5 No. strains and the “No. strains −3 Log10 cfu/ml lower than 0 h” value (6 h, 8 × MIC) was 2 No. strains. The “No. strains −1 Log10 cfu/ml lower than 0 h” value (6 h, MIC) was 4 No. strains, the “No. strains −2 Log10 cfu/ml lower than 0 h” value (6 h, MIC) was 1 No. strains and the “No. strains −3 Log10 cfu/ml lower than 0 h” value (6 h, MIC) was 0 No. strains. The “No. strains −1 Log10 cfu/ml lower than 0 h” value (12 h, 0.25 × MIC) was 0 No. strains, the “No. strains −2 Log10 cfu/ml lower than 0 h” value (12 h, 0.25 × MIC) was 0 No. strains and the “No. strains −3 Log10 cfu/ml lower than 0 h” value (12 h, 0.25 × MIC) was 0 No. strains. The “No. strains −1 Log10 cfu/ml lower than 0 h” value (12 h, 0.5 × MIC) was 1 No. strains, the “No. strains −2 Log10 cfu/ml lower than 0 h” value (12 h, 0.5 × MIC) was 0 No. strains and the “No. strains −3 Log10 cfu/ml lower than 0 h” value (12 h, 0.5 × MIC) was 0 No. strains. For the same molecule, the “No. strains −1 Log10 cfu/ml lower than 0 h” value (12 h, 2 × MIC) was 10 No. strains, the “No. strains −2 Log10 cfu/ml lower than 0 h” value (12 h, 2 × MIC) was 8 No. strains and the “No. strains −3 Log10 cfu/ml lower than 0 h” value (12 h, 2 × MIC) was 1 No. strains. The “No. strains −1 Log10 cfu/ml lower than 0 h” value (12 h, 4 × MIC) was 12 No. strains, the “No. strains −2 Log10 cfu/ml lower than 0 h” value (12 h, 4 × MIC) was 10 No. strains and the “No. strains −3 Log10 cfu/ml lower than 0 h” value (12 h, 4 × MIC) was 5 No. strains. For the same molecule, the “No. strains −1 Log10 cfu/ml lower than 0 h” value (12 h, 8 × MIC) was 12 No. strains, the “No. strains −2 Log10 cfu/ml lower than 0 h” value (12 h, 8 × MIC) was 11 No. strains and the “No. strains −3 Log10 cfu/ml lower than 0 h” value (12 h, 8 × MIC) was 7 No. strains. For the same molecule, the “No. strains −1 Log10 cfu/ml lower than 0 h” value (12 h, MIC) was 7 No. strains, the “No. strains −2 Log10 cfu/ml lower than 0 h” value (12 h, MIC) was 3 No. strains and the “No. strains −3 Log10 cfu/ml lower than 0 h” value (12 h, MIC) was 0 No. strains. For the same molecule, the “No. strains −1 Log10 cfu/ml lower than 0 h” value (24 h, 0.25 × MIC) was 0 No. strains, the “No. strains −2 Log10 cfu/ml lower than 0 h” value (24 h, 0.25 × MIC) was 0 No. strains and the “No. strains −3 Log10 cfu/ml lower than 0 h” value (24 h, 0.25 × MIC) was 0 No. strains. For the same molecule, the “No. strains −1 Log10 cfu/ml lower than 0 h” value (24 h, 0.5 × MIC) was 1 No. strains, the “No. strains −2 Log10 cfu/ml lower than 0 h” value (24 h, 0.5 × MIC) was 1 No. strains and the “No. strains −3 Log10 cfu/ml lower than 0 h” value (24 h, 0.5 × MIC) was 0 No. strains. The “No. strains −1 Log10 cfu/ml lower than 0 h” value (24 h, 2 × MIC) was 11 No. strains, the “No. strains −2 Log10 cfu/ml lower than 0 h” value (24 h, 2 × MIC) was 10 No. strains and the “No. strains −3 Log10 cfu/ml lower than 0 h” value (24 h, 2 × MIC) was 9 No. strains. For the same molecule, the “No. strains −1 Log10 cfu/ml lower than 0 h” value (24 h, 4 × MIC) was 12 No. strains, the “No. strains −2 Log10 cfu/ml lower than 0 h” value (24 h, 4 × MIC) was 12 No. strains and the “No. strains −3 Log10 cfu/ml lower than 0 h” value (24 h, 4 × MIC) was 12 No. strains. For the same molecule, the “No. strains −1 Log10 cfu/ml lower than 0 h” value (24 h, 8 × MIC) was 12 No. strains, the “No. strains −2 Log10 cfu/ml lower than 0 h” value (24 h, 8 × MIC) was 12 No. strains and the “No. strains −3 Log10 cfu/ml lower than 0 h” value (24 h, 8 × MIC) was 12 No. strains. For the same molecule, the “No. strains −1 Log10 cfu/ml lower than 0 h” value (24 h, MIC) was 8 No. strains, the “No. strains −2 Log10 cfu/ml lower than 0 h” value (24 h, MIC) was 5 No. strains and the “No. strains −3 Log10 cfu/ml lower than 0 h” value (24 h, MIC) was 3 No. strains.
